From article doi:10.1101/2023.06.23.544932
These are yes or no findings as the source states them, for the method shown. In cells and extracts the contact can be indirect. Here binding means that the protein was enriched with, or labelled near, the bait; the list need not be complete.

Amino acid sequences for entries named in this document (tags omitted).
UniProt Q6EVK6: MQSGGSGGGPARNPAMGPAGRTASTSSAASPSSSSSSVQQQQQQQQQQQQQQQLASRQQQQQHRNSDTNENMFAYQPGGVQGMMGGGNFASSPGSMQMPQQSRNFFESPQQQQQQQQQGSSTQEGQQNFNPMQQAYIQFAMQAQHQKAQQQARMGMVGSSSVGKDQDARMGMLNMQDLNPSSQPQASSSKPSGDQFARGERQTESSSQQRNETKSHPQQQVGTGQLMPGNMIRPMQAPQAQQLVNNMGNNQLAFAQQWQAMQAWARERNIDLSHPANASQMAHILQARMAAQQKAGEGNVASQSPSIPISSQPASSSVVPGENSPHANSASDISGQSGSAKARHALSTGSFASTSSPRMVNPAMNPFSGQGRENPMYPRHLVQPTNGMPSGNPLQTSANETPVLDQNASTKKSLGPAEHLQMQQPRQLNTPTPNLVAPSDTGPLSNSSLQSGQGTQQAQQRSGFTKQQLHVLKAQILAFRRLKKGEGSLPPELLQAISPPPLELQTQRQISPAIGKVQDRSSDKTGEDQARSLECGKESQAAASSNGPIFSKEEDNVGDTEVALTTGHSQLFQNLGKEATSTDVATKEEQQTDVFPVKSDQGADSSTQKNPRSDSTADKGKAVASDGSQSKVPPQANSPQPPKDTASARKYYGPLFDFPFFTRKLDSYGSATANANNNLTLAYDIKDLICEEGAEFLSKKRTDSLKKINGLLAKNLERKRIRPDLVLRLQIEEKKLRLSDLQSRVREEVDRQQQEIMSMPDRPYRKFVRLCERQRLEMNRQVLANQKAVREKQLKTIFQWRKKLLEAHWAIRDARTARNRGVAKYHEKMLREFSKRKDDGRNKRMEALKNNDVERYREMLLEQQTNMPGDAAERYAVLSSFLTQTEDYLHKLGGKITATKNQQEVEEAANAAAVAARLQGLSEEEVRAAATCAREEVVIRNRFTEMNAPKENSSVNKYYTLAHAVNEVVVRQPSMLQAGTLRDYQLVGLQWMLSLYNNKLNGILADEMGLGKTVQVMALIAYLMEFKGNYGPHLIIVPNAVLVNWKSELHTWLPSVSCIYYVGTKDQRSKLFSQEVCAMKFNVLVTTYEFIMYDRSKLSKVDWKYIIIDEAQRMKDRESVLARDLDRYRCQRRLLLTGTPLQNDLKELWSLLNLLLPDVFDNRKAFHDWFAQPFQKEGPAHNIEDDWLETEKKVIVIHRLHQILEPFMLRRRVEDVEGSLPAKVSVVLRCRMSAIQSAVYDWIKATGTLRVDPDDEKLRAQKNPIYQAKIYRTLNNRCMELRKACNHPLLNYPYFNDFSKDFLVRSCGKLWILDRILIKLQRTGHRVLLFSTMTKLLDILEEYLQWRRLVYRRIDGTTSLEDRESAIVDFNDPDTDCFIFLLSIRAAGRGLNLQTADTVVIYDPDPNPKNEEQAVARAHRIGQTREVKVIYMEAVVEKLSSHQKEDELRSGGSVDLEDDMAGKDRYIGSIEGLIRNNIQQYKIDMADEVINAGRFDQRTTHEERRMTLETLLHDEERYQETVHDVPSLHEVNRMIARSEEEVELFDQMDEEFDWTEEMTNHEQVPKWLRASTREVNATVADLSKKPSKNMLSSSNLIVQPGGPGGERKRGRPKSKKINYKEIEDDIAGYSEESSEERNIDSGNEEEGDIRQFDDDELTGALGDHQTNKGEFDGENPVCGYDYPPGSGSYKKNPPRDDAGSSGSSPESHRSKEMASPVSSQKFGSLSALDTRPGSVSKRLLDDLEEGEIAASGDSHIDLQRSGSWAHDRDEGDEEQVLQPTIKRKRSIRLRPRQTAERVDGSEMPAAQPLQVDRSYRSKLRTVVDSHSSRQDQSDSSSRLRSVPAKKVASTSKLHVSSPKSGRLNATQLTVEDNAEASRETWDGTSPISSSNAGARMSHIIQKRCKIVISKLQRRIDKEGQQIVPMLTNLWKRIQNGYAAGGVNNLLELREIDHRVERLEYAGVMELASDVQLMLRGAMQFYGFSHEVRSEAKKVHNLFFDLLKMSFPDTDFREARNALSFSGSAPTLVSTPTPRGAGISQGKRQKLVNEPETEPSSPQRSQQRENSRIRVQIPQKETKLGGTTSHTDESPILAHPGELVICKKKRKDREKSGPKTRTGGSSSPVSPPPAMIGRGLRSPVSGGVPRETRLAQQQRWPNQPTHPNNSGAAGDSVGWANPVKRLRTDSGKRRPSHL

Molecular target: BRASSINAZOLE-… 1 (BZR1), YFP-tagged (Arabidopsis thaliana) (UniProt Q8S307)
Test: affinity purification with mass spectrometry

Substance: BRAHMA (BRM), SWI/SNF chromatin remodeler ATPase (from UniProt Q6EVK6 1-2193)
- binding: binds
